Experiment in all cases: DAPPL (digital affinity profiling via proximity ligation, sequencing)
Conditions in all cases: 10 mM Tris-HCl pH 7.5, 50 mM NaCl, 1 mM DTT, 4% glycerol, room temperature, 30 min; GST-TFs on glutathione beads, 16-mer random dsDNA library, 0.1% …; high values mean tight binding; double strand, one strand shown; scale: fold enrichment (6-mer frequency, TF over GST control)

Protein sequences, listed by entry. Tags and fused reporters are not part of them. Lines headed by an entry give the natural chain unless they say otherwise; changes in a name come on top.
UniProt Q01892: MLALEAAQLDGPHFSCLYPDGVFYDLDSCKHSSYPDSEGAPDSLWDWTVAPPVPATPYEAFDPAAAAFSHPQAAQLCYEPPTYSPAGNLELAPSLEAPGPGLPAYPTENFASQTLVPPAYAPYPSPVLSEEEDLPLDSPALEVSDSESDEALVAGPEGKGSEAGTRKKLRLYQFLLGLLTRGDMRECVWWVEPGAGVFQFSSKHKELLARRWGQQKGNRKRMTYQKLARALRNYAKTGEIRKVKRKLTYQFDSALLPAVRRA

One assay has as its target T1, ETV2 (UniProt O00321).
T1 sequence: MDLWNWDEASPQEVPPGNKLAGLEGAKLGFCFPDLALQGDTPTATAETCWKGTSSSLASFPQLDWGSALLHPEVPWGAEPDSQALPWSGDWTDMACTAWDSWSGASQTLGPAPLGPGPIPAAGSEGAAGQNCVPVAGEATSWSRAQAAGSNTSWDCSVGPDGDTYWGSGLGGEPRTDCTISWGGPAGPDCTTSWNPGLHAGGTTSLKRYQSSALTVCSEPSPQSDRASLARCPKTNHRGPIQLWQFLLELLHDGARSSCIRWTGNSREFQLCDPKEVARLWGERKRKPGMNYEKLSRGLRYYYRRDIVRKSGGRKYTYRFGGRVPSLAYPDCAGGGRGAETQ

For another assay, the target named is T2, ETV3L (UniProt Q6ZN32).
T2 sequence: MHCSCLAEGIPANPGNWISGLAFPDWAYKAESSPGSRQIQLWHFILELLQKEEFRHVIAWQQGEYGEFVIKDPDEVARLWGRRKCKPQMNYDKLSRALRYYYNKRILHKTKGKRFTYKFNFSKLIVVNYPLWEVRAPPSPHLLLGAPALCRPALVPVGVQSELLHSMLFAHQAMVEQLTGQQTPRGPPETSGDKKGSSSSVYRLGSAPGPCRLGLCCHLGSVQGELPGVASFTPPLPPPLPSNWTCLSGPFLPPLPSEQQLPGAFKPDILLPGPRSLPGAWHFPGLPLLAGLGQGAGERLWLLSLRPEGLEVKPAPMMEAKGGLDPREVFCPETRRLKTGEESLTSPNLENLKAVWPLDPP

A further assay deals with SPIB (UniProt Q01892).
A further assay addresses T3, EHF (UniProt Q9NZC4).
T3 sequence: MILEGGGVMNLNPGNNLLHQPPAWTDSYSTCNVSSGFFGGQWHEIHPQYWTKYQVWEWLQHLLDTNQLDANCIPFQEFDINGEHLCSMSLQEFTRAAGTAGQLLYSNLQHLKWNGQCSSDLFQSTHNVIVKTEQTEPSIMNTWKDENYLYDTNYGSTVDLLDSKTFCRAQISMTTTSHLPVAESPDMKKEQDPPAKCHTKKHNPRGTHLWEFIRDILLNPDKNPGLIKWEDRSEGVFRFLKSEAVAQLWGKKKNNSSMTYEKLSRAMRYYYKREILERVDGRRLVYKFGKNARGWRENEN

Only a part is listed here, and it is no random draw. At the low end of the ranking the order means little.

In turn, GCTTCA gave a binding signal with ETV2 of 1.29.

AATTGG displayed a binding signal with ETV2 of 1.2.

Regarding TACACC, in the assay with ETV2, the binding signal came to 1.19.

For the sequence ATGTCA, the binding signal with ETV2 came out at 0.962.

Regarding ATTCTG, the binding signal with ETV2 was 1.43.

In the assay with ETV2, TCTGCT came in with a binding signal of 1.53.

As for GATATC, the binding signal in the assay with ETV2 came to 1.51.

In the assay with ETV2, TCCCAA yielded a binding signal of 0.995.

On to GAAATG, for which the binding signal with ETV2 was found to be 1.55.

For TGCCTG, in the assay with ETV2, the binding signal worked out at 1.2.

With ACGCCC, the binding signal with ETV2 stood at 1.05.

On to CCCAAT, for which the binding signal in the assay with ETV2 was determined as 1.3.

For ATACCA, the binding signal in the assay with ETV2 was 1.08.

Take TACCGC: the binding signal with ETV2 stood at 1.16.

For the sequence TCTAGC, the binding signal with ETV2 turned out to be 1.19; with ETV3L it was 1.27.

Turning to CTCGTG, in the assay with ETV2, the binding signal came to 0.959.

As for TGTTAA, the binding signal in the assay with ETV2 came out at 1.06.

Turning to TTGCCG, the binding signal with ETV2 turned out to be 0.936.

In turn, TTTTGT yielded a binding signal in the assay with ETV2 of 1.28.

TACTTA: in the assay with ETV2, the binding signal came to 1.16.

With GTGCTC, in the assay with ETV2, the binding signal stood at 1.16.

In turn, AATGGC displayed a binding signal in the assay with ETV2 of 1.26.

CCAATG showed a binding signal with ETV2 of 0.987.

With ATCTAC, the binding signal with ETV2 amounted to 1.29.

In turn, GTCCAC yielded a binding signal in the assay with ETV2 of 1.14.

In the case of CGATCT, the binding signal with ETV2 is 1.27.

For CTATTC, in the assay with ETV2, the binding signal was determined as 1.37.

Regarding TATTCC, the binding signal in the assay with ETV2 amounted to 1.68.

As for CGCCCG, the binding signal with ETV2 came to 0.995.

In the assay with ETV2, TTCCTG yielded a binding signal of 2.46.

Take CCTCGT: the binding signal in the assay with ETV2 amounted to 0.985.

As to TGGTGT, in the assay with ETV2, the binding signal amounted to 1.45.

In the assay with ETV2, AATTAG displayed a binding signal of 1.12.

Turning to TGGAAA, the binding signal with ETV2 came to 0.996; with ETV3L, 1.2.

In the case of ACCACC, the results for the binding signal with SPIB, in the assay with ETV2 and with ETV3L were 1.18, 0.92 and 1.08, respectively.

Turning to TTGGCC, the values for the binding signal with SPIB, with ETV2 and in the assay with ETV3L were 1.16, 1.08 and 1.09, respectively.

Regarding TGTTCA, the results for the binding signal in the assay with ETV2 and with ETV3L were 1.07 and 1.23, respectively.

Consider ACTAAG, for which the binding signal was 0.983 with ETV2 and 1.12 in the assay with ETV3L.

On to ATTCGT, for which the binding signal with ETV2 and with ETV3L was 1.16 each time.

Regarding ATTTAC, the binding signal turned out to be 1.16 with ETV2 and 1.18 with ETV3L.

In the case of GCGTTC, the binding signal with ETV2 was found to be 1.23; in the assay with ETV3L it was 1.15.

Regarding CCTCCC, the binding signal in the assay with ETV2 was 1.71; with ETV3L, 1.49.

For the sequence ACCACT, the binding signal worked out at 1.27 in the assay with ETV2 and 1.36 with ETV3L.

In the case of AGCTTT, the binding signal in the assay with ETV2 was found to be 1.23; with ETV3L it was 1.2.

For the sequence TCGATC, the results for the binding signal in the assay with ETV2 and in the assay with ETV3L were 1.06 and 1.2, respectively.

Take GATGAC: the binding signal with EHF stood at 1.43; in the assay with ETV2 it was 1.35; in the assay with ETV3L, 1.53.

As for TGCGTA, the binding signal worked out at 1.21 with ETV2 and 1.17 with ETV3L.

For the sequence GGCCCC, the binding signal in the assay with EHF stood at 0.933; with SPIB, 0.999; with ETV2, 1.13; with ETV3L, 0.993.

As to GATACT, the binding signal with EHF was 1.21; with SPIB, 1.16; with ETV2, 1.02; with ETV3L, 1.22.

For the sequence CGACTT, the binding signal with ETV2 is 1.72; with ETV3L, 1.62.

For the origin of these results see publication PMC7862700.
